Assay results: PubChem BioAssay (EPA / NIEHS)
“And” between values parts separate entries of the source, which are not always exact repeats. Identical values can stand only once. The shares of active, inactive and inconclusive entries below differ from those in the screen. Potencies of inconclusive entries are doubtful fits and often do not repeat. The source made the active and inactive calls. The calls were made as follows: active = hit-call score of the fitted dose curve at least 0.9, where 1 is the maximum; inconclusive = response in the unintended direction; inactive = score below 0.9.

Sequences of proteins named here, by UniProt entry; tags and fusion partners are left off.
UniProt P04637, whole entry, looked up: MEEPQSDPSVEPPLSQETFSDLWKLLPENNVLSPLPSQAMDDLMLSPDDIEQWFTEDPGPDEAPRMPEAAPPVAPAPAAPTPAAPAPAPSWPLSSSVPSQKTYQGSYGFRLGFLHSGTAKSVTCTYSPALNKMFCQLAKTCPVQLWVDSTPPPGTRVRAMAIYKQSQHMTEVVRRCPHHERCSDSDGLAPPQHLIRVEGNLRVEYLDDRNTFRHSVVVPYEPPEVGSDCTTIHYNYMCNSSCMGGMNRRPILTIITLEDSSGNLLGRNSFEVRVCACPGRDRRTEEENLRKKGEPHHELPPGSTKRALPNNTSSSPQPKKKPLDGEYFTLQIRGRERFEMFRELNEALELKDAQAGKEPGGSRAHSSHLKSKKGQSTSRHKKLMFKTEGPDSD

system: not listed separately; assay: TOX21_p53_BLA_p3_viability: Viability Assessment in the Tox21 HCT-116 p53 Agonism Beta-lactamase Assay, Phase 3 (AID 2283593);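 also: cells exposed to compound for 16 h before reading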
In short: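 Cellular ATP was quantified by CellTiter-Glo luminescence, read after 30 min at room temperature. Beforehand, HCT116 cells (4000/well) received compound 5 h post-seeding, 217-fold diluted from DMSO, then incubated 16 h at 37C.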

Compound | AC50 | outcome
O=C(O)CCCCC1CCSS1 (stereo not drawn) | inconclusive: 45.6 µM and inconclusive: 4.57 µM | –
O=Cc1ccc(Cl)c([N+](=O)[O-])c1 | inconclusive: 46.1 µM | –
CC1COC(=O)O1 (stereo not drawn) | – | inactive
CC(=O)NCCO | inconclusive: 0.00218 µM | –
CC(C)(C)C(=O)C=Cc1ccc(Cl)cc1 | – | inactive
Clc1ccc(Cl)c(Cl)c1Cl | inconclusive: 9.14 µM and inconclusive: 45.6 µM | –
CC(C)CCOC(=O)c1ccccc1 | – | inactive
Cc1occc(=O)c1OC(=O)C(C)C | – | inactive
C=C1CC/C=C(\C)CC[C@@H]2[C@@H]1CC2(C)C | – | inactive
Brc1nc2ccccc2s1 | – | inactive
C[C@@H]1CCN(C(=O)[C@H](CCCN=C(N)N)NS(=O)(=O)c2cccc3c2NC[C@H](C)C3)[C@@H](C(=O)O)C1 | inconclusive: 23 µM | –
O=C1CCCC=CCCCCCCCCCC1 | inconclusive: 82.8 µM | –
O=C(C=Cc1ccccc1)OCCc1ccccc1 | – | inactive
O=C(c1ccc(O)cc1)c1ccc(O)cc1O | inconclusive: 10.4 µM and inconclusive: 46.5 µM | –
O=C(O)C[C@H](O)C[C@H](O)/C=C/c1c(C2CC2)nc2ccccc2c1-c1ccc(F)cc1 | inconclusive: 23 µM | –
Nc1ccc(NCCO)c([N+](=O)[O-])c1 | inconclusive: 46.1 µM | –
CCC(C)C1CCCCC1=O (stereo not drawn) | inconclusive: 46.1 µM | –
FC1(F)C(F)(F)C(F)(F)C2(F)C(F)(C1(F)F)C(F)(F)C(F)(F)C1(F)C(F)(F)C(F)(F)C(F)(F)C(F)(F)C12F (stereo not drawn) | inconclusive: 38.9 µM | –
CC(C)(C)c1cc(CCC(=O)NN)cc(C(C)(C)C)c1O | – | inactive

target: Cellular tumor antigen p53 (Homo sapiens) (UniProt P04637); assay: TOX21_p53_BLA_p3_ratio: Tox21 HCT-116 p53 Agonism Beta-lactamase Assay, Ratio, Phase 3 (AID 2283596)
In short: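 HCT116 p53-bla cells (4000/well) given compound in DMSO (217-fold dilution) after 5 h, incubated 16 h at 37C. CCF4-AM substrate 2 h at room temperature; 460/530 nm emission ratio, gain fitted against DMSO.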

Compound | AC50 | outcome
CCN(CC)CC | inconclusive: 82.6 µM | –
CC(=O)[C@@]1(O)CC[C@H]2[C@@H]3C[C@H](C)C4=CC(=O)C=C[C@]4(C)[C@@]3(F)[C@@H](O)C[C@@]21C | – | inactive
CS(=O)(=O)c1ccc(C2=C(c3ccccc3)C(=O)OC2)cc1 | inconclusive: 23 µM | –
C=C(C)C(=O)OCC1CCCO1 (stereo not drawn) | inconclusive: 46.1 µM | –
